In all, about 350,000 compounds went through this assay and about 6,000 (1.7%) were called active. Inconclusive results, whose numbers are uncertain, are shown with a selection of clear calls. Rule as the data show it: active = CPE inhibition above about 20% (passing the limit was not always enough); inconclusive = no clear call, values can overlap the other calls; tested in BHK-21 cells.
test: protection of cells from dengue 2 killing – plate reader, single concentration, primary screen (AID 651640); conditions: DENV2-infected cells, cytopathic effect rescue, at 9.99 µM, hits give high values;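 also: 0% = median of neutral control wells and 100% = median of positive control wells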

| SMILES | CPE inhibition |
| --- | --- |
| C[C@H](CO)N1C[C@H](C)[C@H](CN(C)S(=O)(=O)c2ccccc2)OCCCC[C@H](C)Oc2ccc(NC(=O)c3ccccc3)cc2C1=O | inconclusive: 22.3% |
| CCc1cc2c(=O)[nH]c(-c3ccncc3)nc2s1 | inconclusive: 26.4% |
| Cc1occc1C(=O)O/N=C(\N)c1ccc(Cl)cc1 | inconclusive: 21.3% |
| O=C(NC1CC2CCC(C1)N2Cc1ccccc1)c1ccccc1Br (stereo not given) | inactive: 0.181% |
| O=C(C[C@H]1C[C@@H]2c3cc(NC(=O)Nc4ccccc4)ccc3O[C@@H]2[C@H](CO)O1)NCC1CC1 | inactive: -4.81% |
| CCCNC(=O)[C@H]1[C@H](CO)[C@H]2Cn3c(cccc3=O)[C@@H]1N2CCC(F)(F)F | active: 20.1% |
| CC1=C(C(=O)N(C)C)CC(CC(=O)NCc2ccco2)C(=O)N1CCC1=CCCCC1 (stereo not given) | inconclusive: 32.8% |
| C/C=C/c1cnc2c(c1)C(=O)N([C@H](C)CO)C[C@H](C)[C@H](CN(C)C(=O)Nc1c(C)noc1C)O2 | inactive: -2.54% |
| COc1ccc(S(=O)(=O)Nc2ccc3c(c2)C(=O)N([C@H](C)CO)C[C@@H](C)[C@@H](CN(C)C(=O)NC2CCCCC2)O3)cc1 | inconclusive: 38% |
| C[C@@H]1CN([C@@H](C)CO)C(=O)CCCn2nncc2CO[C@H]1CN(C)CC1CCCCC1 | inconclusive: 27.6% |
| COc1ccc(NC(=O)Nc2ccc3c(c2)C(=O)N([C@H](C)CO)C[C@H](C)[C@@H](CN(C)S(=O)(=O)c2cn(C)cn2)OCCCC[C@@H](C)O3)cc1 | inactive: -1.55% |
| O=C(c1ccc(C(F)(F)F)cc1)N1CCN(S(=O)(=O)c2ccc3c(c2)OCCCO3)CC1 | inconclusive: 24.9% |
| N#Cc1ccc2c(=O)n(-c3ccccc3)sc2c1 | inconclusive: 29.7% |
| CC1(C(=O)NS(=O)(=O)c2ccccc2C(F)(F)F)CCN1C(=O)CC1CCCC1 (stereo not given) | inconclusive: 29% |
| CCCCCN(C(=O)CCC(=O)OCc1cccc(C)c1)c1c(N)n(CCCC)c(=O)[nH]c1=O | inconclusive: 25.7% |
| COCC#Cc1ccc([C@H]2[C@H]3CN(C(=O)Nc4ccccc4F)CC(=O)N3[C@H]2CO)cc1 | inconclusive: 25.6% |
| CN1CCN(C(=O)[C@@H]2[C@@H](CO)[C@@H]3Cn4c(ccc(-c5cncnc5)c4=O)[C@@H]3N2CC2CCCC2)CC1 | inactive: -10.1% |
| Cc1ccc2[nH]c(=O)c3cc(C(=O)N(C)C4CCCCC4)sc3c2c1 | inconclusive: 23% |
| O=C(c1cccc(F)c1)N1CCCCN2[C@H](C1)[C@@H](c1ccc(-c3ccncc3)cc1)[C@@H]2CO | inactive: 9.27% |
| CCOC(=O)c1c(SC)n(-c2ccccc2)c(=S)n(-c2ccccc2)c1=O | inconclusive: 32.4% |
| NS(=O)(=O)Oc1ccccc1 | active: 52.1% |
| O=C(CNS(=O)(=O)c1ccc(Cl)c(C(F)(F)F)c1)NC1CCCCC1 | inconclusive: 27.7% |
| C[C@@H]1CCCCO[C@@H](CN(C)S(=O)(=O)c2cn(C)cn2)[C@@H](C)CN([C@H](C)CO)C(=O)c2cc(N(C)C)ccc2O1 | inconclusive: 115% |
| O=C(NC1CCC1)[C@H]1[C@H](CO)[C@H]2Cn3c(ccc(-c4ccccc4)c3=O)[C@H]2N1CC1CC1 | inactive: -0.442% |

| SMILES | CPE inhibition |
| --- | --- |
| CSCCC1NC(=O)N(CC(=O)N2N=C(c3ccc(Cl)cc3)CC2c2ccco2)C1=O (stereo not given) | inconclusive: 25.3% |
| Cc1cc(Br)cn2c(Cc3ccccc3C(F)(F)F)c(-c3ccccc3)nc12 | inconclusive: 58.8% |
| COc1ccc(CN(C)CCCn2cnc3c(OCc4ccccc4)ncnc32)cc1 | inconclusive: 22.5% |
| Cc1cccc(S(=O)(=O)N2CC[C@@H]3[C@H]2c2cc(C#Cc4ccccc4F)ccc2N[C@@H]3CO)c1 | inconclusive: 22.1% |
| Cc1nn(-c2ccccc2)nc1C(=O)Nc1nnc(C(F)(F)F)s1 | inactive: -2.53% |
| C[C@@H]1CCCCO[C@@H](CN(C)C(=O)c2ccncc2)[C@@H](C)CN([C@H](C)CO)C(=O)c2cc(NS(=O)(=O)c3cn(C)cn3)ccc2O1 | inactive: -9.73% |
| O=C(c1cccc(S(=O)(=O)Nc2cccc(C(F)(F)F)c2)c1)N1CCCCC1 | inconclusive: 32.1% |
| COc1ccc(NC(=O)Nc2cccc3c2O[C@@H](CN(C)Cc2ccncc2)[C@@H](C)CN([C@@H](C)CO)C3=O)cc1 | inactive: -3.21% |
| CS(=O)(=O)N(Cc1ccc(C(=O)NN=C2CCCCCC2)cc1)c1ccccc1 | active: 110% |
| CO[C@@H]1CN(C)C(=O)c2ccc(NC(C)=O)cc2OC[C@H](C)N(C(=O)C2CCC2)C[C@H]1C | inconclusive: 29.5% |
| CC(C)NC(=O)Nc1cccc2c1O[C@H](CN(C)C(=O)Nc1ccccc1)[C@@H](C)CN([C@@H](C)CO)C2=O | active: 47.5% |
| Cc1ccccc1-c1ccc2c(c1)O[C@H](CN(C)CC1CC1)[C@H](C)CN([C@H](C)CO)S2(=O)=O | inconclusive: 26.3% |
| O=C(Cc1cccnc1)N1CC(=O)N2[C@H](CO)[C@H](c3ccc(C#CC4CCCC4)cc3)[C@H]2C1 | inconclusive: 23.5% |
| CC1CN=C(N(C(=O)Nc2ccccc2)C(C)c2ccccc2)S1 (stereo not given) | inconclusive: 39.4% |
| C[C@@H]1CN([C@H](C)CO)C(=O)c2cc(NC(=O)Nc3cccc4ccccc34)ccc2O[C@@H]1CN(C)C(=O)Nc1ccc2c(c1)OCO2 | active: 33% |
| COc1ccc2c3c([nH]c2c1)[C@@H](CO)N(C(=O)Nc1ccc(F)cc1)CC31CCN(CC2CC2)CC1 | active: 55.8% |
| C/C(=N\NC(=O)c1ccccc1O)c1ccc(NC(=O)Cc2ccccc2)cc1 | inconclusive: 35.3% |
| Cc1cccc2cc(C#N)c(N3CCOCC3)nc12 | inconclusive: 31% |
| CN(C[C@H]1N[C@@H](CO)[C@H]1c1ccc(-c2cccc(F)c2)cc1)C(=O)CC1CC1 | active: 20.2% |
| CCOc1ccc2[nH]c3c(=O)n(CCc4ccc(OC)cc4)cnc3c2c1 | inactive: -3.57% |
| COC(=O)CCCC1=CC2=CC(=O)C(C)(OC(=O)c3cccs3)C(=O)C2=CN1Cc1ccco1 (stereo not given) | inconclusive: 75.6% |
| CC(C)n1nc(Cc2cccc3ccccc23)c(C#N)c1N | inactive: 1.52% |
| CN(C)CC(=O)Nc1ccc2c(c1)[C@H]1C[C@@H](CC(=O)N3CCN(C)CC3)O[C@H](CO)[C@H]1O2 | inconclusive: 20.9% |
| CCN(C(=O)COC(=O)CNC(=O)c1ccc2ccccc2c1)c1c(N)n(Cc2ccccc2)c(=O)[nH]c1=O | inactive: -2.95% |

Given as tab-separated lines: entries from further up.
SMILES	CPE inhibition
CN1CCN(C(=O)[C@@H]2[C@@H](CO)[C@@H]3Cn4c(ccc(-c5cncnc5)c4=O)[C@@H]3N2CC2CCCC2)CC1	inactive: -10.1%
O=C(c1cccc(S(=O)(=O)Nc2cccc(C(F)(F)F)c2)c1)N1CCCCC1	inconclusive: 32.1%
Cc1ccccc1-c1ccc2c(c1)O[C@H](CN(C)CC1CC1)[C@H](C)CN([C@H](C)CO)S2(=O)=O	inconclusive: 26.3%
CCN(C(=O)COC(=O)CNC(=O)c1ccc2ccccc2c1)c1c(N)n(Cc2ccccc2)c(=O)[nH]c1=O	inactive: -2.95%

Following part.

| SMILES | CPE inhibition |
| --- | --- |
| Cc1cc(C)c2c(n1)SCC(=O)N2CC(=O)Nc1ccc(C)c(C)c1 | inconclusive: 35.9% |
| COc1ccccc1N1CCN(C(=O)CN2C(=O)c3ccccc3C2=O)CC1 | inactive: -1.14% |
| Cc1noc(C)c1S(=O)(=O)Nc1ccc2c(c1)C(=O)N([C@@H](C)CO)C[C@H](C)[C@H](CN(C)C(=O)CCC(F)(F)F)OCCCC[C@H](C)O2 | active: 33.9% |
| COC(=O)c1c(-c2ccc(SC)cc2)sc2ccccc12 | active: 74.3% |
| COc1ccc(C#Cc2ccc([C@@H]3[C@@H](CO)N4CCCCN(S(=O)(=O)c5ccccc5)C[C@@H]34)cc2)cc1 | active: 31.7% |
| CN(C)CCN(CC1CCCN(Cc2ccccc2F)C1)C(=O)c1ccc(Cl)cc1 (stereo not given) | inconclusive: 24% |
| Cc1ccc(S(=O)(=O)N[C@@H]2CC[C@H](CCNC(=O)c3ccc4c(c3)OCO4)O[C@@H]2CO)cc1 | inconclusive: 44.9% |
| CC(C)(C)OC(=O)C[C@@H]1C/C=C\C[C@H](CC(=O)NCCO)C(=O)NC[C@@H](c2ccccc2)OC1=O | inconclusive: 25.7% |
| COc1ccc(NC(=O)Nc2ccc3c(c2)C(=O)N([C@H](C)CO)C[C@H](C)[C@@H](CN(C)C(=O)C2CCCCC2)OCCCC[C@@H](C)O3)cc1 | active: 31.8% |
| COc1ccc(S(=O)(=O)N(C)C[C@@H]2Oc3c(NS(=O)(=O)c4ccc(F)cc4)cccc3C(=O)N([C@@H](C)CO)C[C@@H]2C)cc1 | inactive: -12.4% |
| CO[C@H]1CN(C)C(=O)c2cc(NC(=O)C3CCC3)ccc2OC[C@@H](C)N(C(=O)NC(C)C)C[C@H]1C | inactive: 3.87% |
| O=C(COC(=O)c1cccnc1Cl)Nc1cc(S(=O)(=O)N2CCCCCC2)ccc1Cl | inconclusive: 65.4% |
| C/C=C/c1ccc([C@H]2[C@H](CO)N[C@H]2CN(C(=O)C2CCC2)C(C)C)cc1 | active: 22.6% |
| COc1ccccc1C#Cc1ccc([C@@H]2[C@H]3CN(C(=O)C4CC4)CCCCN3[C@H]2CO)cc1 | inactive: 8.1% |
| OCCOc1ccc(CN2CCN(CCCc3ccccc3)C(CCO)C2)cc1 (stereo not given) | inconclusive: 24.9% |
| CC(C)(C)C(=O)NC1(C(F)(F)F)NC(=O)N(c2ccc(F)cc2)C1=O (stereo not given) | inconclusive: 20.3% |
| COc1ccc(S(=O)(=O)Nc2ccc3c(c2)CC(=O)N([C@H](C)CO)C[C@@H](C)[C@@H](CN(C)Cc2ccc(-c4ccccc4)cc2)O3)cc1 | inconclusive: 23.5% |
| Cc1ccc(NC(=O)CSc2nnc(C)c(=O)n2N)cc1Cl | inconclusive: 38.4% |
| C[C@@H]1CN([C@H](C)CO)C(=O)c2cc(NC(=O)CCC(F)(F)F)ccc2O[C@@H](C)CCCCO[C@@H]1CN(C)C(=O)c1ccccc1 | inactive: -1.03% |
| CC(=O)c1cccc(NC(=O)C2CC(=O)N(c3ccc4c(c3)OCCO4)C2)c1 (stereo not given) | inconclusive: 29.7% |
| O=C(N/N=C/c1cccnc1)c1ccccc1[N+](=O)[O-] | inconclusive: 20.4% |
| CC1CCN(C(=O)CN2C(=O)NC(C)(c3ccc4ccccc4c3)C2=O)CC1 (stereo not given) | inconclusive: 43.1% |

From PubChem BioAssay AID651640 (Broad Institute, 2012)
